Reference: publication PMC12607029
Results are given in words; binding and its absence hold for the method and conditions named. In cells and extracts the contact can be indirect. Some results given as binding are weak or reduced against the parent protein; the word gives no strength.

By UniProt entry, the sequences of proteins in these tests, tags left out.
UniProt P06748: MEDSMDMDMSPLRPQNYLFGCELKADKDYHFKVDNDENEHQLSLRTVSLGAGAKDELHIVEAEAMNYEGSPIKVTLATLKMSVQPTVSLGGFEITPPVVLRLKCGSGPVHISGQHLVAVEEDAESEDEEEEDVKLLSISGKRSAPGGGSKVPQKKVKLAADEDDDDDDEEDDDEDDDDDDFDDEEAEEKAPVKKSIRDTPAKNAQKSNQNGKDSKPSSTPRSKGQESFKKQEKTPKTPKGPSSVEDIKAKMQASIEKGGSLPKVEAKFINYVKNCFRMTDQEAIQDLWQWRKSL
UniProt Q9BQ67: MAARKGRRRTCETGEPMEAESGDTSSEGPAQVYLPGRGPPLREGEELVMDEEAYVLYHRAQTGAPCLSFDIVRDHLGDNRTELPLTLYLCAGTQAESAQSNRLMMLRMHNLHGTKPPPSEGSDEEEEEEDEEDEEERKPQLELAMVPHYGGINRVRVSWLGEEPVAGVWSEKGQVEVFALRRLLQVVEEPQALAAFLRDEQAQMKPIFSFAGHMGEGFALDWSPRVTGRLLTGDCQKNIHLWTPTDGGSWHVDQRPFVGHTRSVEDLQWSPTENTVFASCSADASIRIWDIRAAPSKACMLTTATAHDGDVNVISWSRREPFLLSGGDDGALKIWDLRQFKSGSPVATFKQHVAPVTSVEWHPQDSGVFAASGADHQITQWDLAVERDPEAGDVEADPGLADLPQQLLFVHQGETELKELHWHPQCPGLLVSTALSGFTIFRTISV

Experiments:
[1] = molecular target: nucleophosmin 1 (NPM1), endogenous (human (endogenous in HepG2 and SK-Hep-1)) (UniProt P06748); assay: co-IP; endogenous proteins in HepG2 and SK-Hep-1 cells; also before and after OXA (20 μM) treatment for 12 h (interaction enhanced after OXA)
[2] = molecular target: nucleophosmin 1 (NPM1), exogenous (UniProt P06748); assay: co-IP; exogenous GRWD1 and NPM1 in 293T cells

| binding [1] | binding [2] | Substance |
| --- | --- | --- |
| binds | – | glutamate-rich WD repeat containing 1 (GRWD1), endogenous (from UniProt Q9BQ67 1-446) |
| – | binds | glutamate-rich WD repeat containing 1 (GRWD1), exogenous (from UniProt Q9BQ67 1-446) |
